# Literature values as cited in patent US9469656B2, “HDAC inhibitors as anti-cancer agents” (The University of Toledo, priority 2014, dated 2016).
# At least one compound was matched to its structure with a doubt left.
# Tested on: rheumatoid arthritis synovial fibroblasts
# Conditions: cited from earlier work
smiles,measurement,value
CCCCCCCC(=O)SCC/C=C/[C@@H]1CC(=O)NCc2nc(cs2)C2=N[C@@](C)(CS2)C(=O)N[C@@H](C(C)C)C(=O)O1 [largazole],effect on viability,no effect
